Results published in patent US11723891B2, “Drug combinations for use in the treatment of RAS-mutant cancer” (UMC Utrecht Holding B.V., priority 2018, dated 2023).
Some entries share one result that the patent states for a list of compounds. At least one compound was matched to its structure with a doubt left.

What follows are compounds tested on Tumor organoids from colorectal cancer containing a Kras12D oncogenic mutation (assay: Synthetic lethality drug screen with afatinib + selumetinib anchor, apoptosis by semi-automated imaging). Conditions: hits of the screen at cut-off point.
Assay type: cell-based, human
Protocol: Tumor organoids from colorectal cancer containing a Kras12D oncogenic mutation were treated for three days, with different concentrations of one of a 420 anti-cancer compound library (SellectChem), in the presence and absence of a combination of 1 μM selumetinib and 1 μM afatinib to inhibit MEK, EGFR and ERBB2. The induction of apoptosis was measured by semi-automated imaging.
Organoids were treated with 1 μM selumetinib and 1 μM afatinib, together with 5 nM-20 μM of one of the 420 compounds from the anti-cancer compound library of SellectChem in 384-well plates. After three days the amount of apoptosis was measured by semi-automated imaging.

Row | SMILES | ΔIC50 cut-off: apoptosis induced in the presence of selumetinib and afatinib at a lower concentration than in their absence
1 | Cc1nc(Nc2ncc(C(=O)Nc3c(C)cccc3Cl)s2)cc(N2CCN(CCO)CC2)n1 [Dasatinib] | at least 100 fold
2 | CC(=O)O[C@@]12CO[C@@H]1C[C@H](O)[C@@]1(C)C(=O)[C@H](O)C3=C(C)[C@@H](OC(=O)[C@H](O)[C@@H](NC(=O)OC(C)(C)C)c4ccccc4)C[C@@](O)([C@@H](OC(=O)c4ccccc4)[C@H]21)C3(C)C [Docetaxel] | at least 100 fold
3 | O=C(Cc1ccc(-c2ccc(OCCN3CCOCC3)cc2)cn1)NCc1ccccc1 [KX2-391] | at least 100 fold
4 | CS(=O)(=O)c1cccc(CNc2nc(Nc3ccc4c(c3)CCC(=O)N4)ncc2C(F)(F)F)c1 [PF-573228] | at least 100 fold
5 | CC(C)(C)c1[nH]cnc1/C=c1\[nH]c(=O)/c(=C/c2ccccc2)[nH]c1=O [Plinabulin] | at least 100 fold
6 | CC[C@]1(O)C[C@H]2CN(CCc3c([nH]c4ccccc34)[C@@](C(=O)OC)(c3cc4c(cc3OC)N(C=O)[C@H]3[C@@](O)(C(=O)OC)[C@H](OC(C)=O)[C@]5(CC)C=CCN6CC[C@]43[C@@H]65)C2)C1 [Vincristine] | at least 100 fold
